According to PubChem BioAssay AID743266 (National Center for Advancing Translational Sciences (NCATS), 2014):
In all, about 410,000 compounds went through this assay and about 310 (0.076%) were called active. The inconclusive results got no clear call from the source; some entries with a clear call stand among them for comparison. The call rests on the fitted dose curve; in most records, active means well fitted activation curve with a large enough effect; inconclusive means small, poorly fitted or top-dose-only effect, or another doubt; inactive means no such curve, though single readings can be large or run the other way. A potency beside an inconclusive call is a rough fit, not a confirmed value.

Sequences of proteins named here, by UniProt entry; tags and fusion partners are left off. A change or cut given only in a name is not applied to a line headed by its entry.
UniProt Q03431: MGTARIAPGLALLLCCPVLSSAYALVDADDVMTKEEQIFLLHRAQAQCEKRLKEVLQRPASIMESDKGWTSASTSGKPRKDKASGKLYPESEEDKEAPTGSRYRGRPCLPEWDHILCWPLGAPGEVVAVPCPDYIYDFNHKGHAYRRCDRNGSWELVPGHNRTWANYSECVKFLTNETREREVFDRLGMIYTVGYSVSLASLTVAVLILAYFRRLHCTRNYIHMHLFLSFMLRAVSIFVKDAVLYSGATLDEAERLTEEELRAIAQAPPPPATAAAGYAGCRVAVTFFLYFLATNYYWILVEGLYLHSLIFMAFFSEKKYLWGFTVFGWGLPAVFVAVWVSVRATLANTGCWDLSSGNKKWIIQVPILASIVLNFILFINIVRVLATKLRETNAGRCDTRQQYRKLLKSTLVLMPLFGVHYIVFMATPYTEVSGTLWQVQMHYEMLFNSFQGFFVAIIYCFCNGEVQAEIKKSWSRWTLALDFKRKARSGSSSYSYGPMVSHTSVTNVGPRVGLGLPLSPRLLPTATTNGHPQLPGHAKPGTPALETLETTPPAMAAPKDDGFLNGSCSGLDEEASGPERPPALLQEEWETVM

Biological target: Parathyroid hormone/parathyroid hormone-related peptide receptor (Homo sapiens) (UniProt Q03431)
Assay: qHTS for PTHR1 Agonists: Primary Screen; further: nearly all actives have a fitted effect of over 55% in size
Details: HEK293 GP2 PTHR1 cells, GloSensor cAMP luminescence, 1 h; activation: at 115 µM (top of the series) unless noted; series mostly up to 115 µM
How it was run: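 HEK-293-derived GP2 cells expressing PTHR1 and a GloSensor cAMP reporter, 3,000/well, plated overnight, given luciferin plus IBMX (each 0.5 mM as added) for 1 h at 37 °C, then compound for 1 h at 37 °C. Luminescence was read after 15 min at room temperature.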
Potency means the concentration at half of the fitted maximal effect.

Potency, inactive:
O=C(CN1CCN(c2ccc(Cl)cc2)CC1)Nc1ccc(F)c(F)c1, COc1ccc(-c2nc(S(=O)(=O)c3ccccc3)c(NCCCN3CCOCC3)o2)cc1, COC(=O)CC1(C(=O)OC)Oc2ccc(Br)cc2C(=O)N1c1cc(Cl)c(Cl)cc1Cl (configuration not stated), Nc1cccc(Nc2nc(OC(C(F)(F)F)C(F)(F)F)nc(OC(C(F)(F)F)C(F)(F)F)n2)c1, CCN1/C(=C/C(C)=O)Sc2ccc(OC)cc21, COc1cccc(S(=O)(=O)N(C)C[C@@H]2OCc3cnnn3CCCC(=O)N([C@H](C)CO)C[C@@H]2C)c1, COc1nc(N)nc(CC(=O)C2CC2)n1, COc1ccc(NC(=O)c2oc3ccccc3c2NC(=O)COc2ccc(F)cc2)c(OC)c1, Cc1ccc(NC(=O)Cn2cc(C(=O)C3CCCCC3)c3ccccc32)c(C)c1, NC(=O)c1ccc(NC(=O)COC(=O)C2CC(=O)N(Cc3ccccc3)C2)cc1 (configuration not stated), Cc1sc2ncnc(N=Nc3c(O)[nH]c4ccccc34)c2c1C, O=S(c1ccc2ccccc2c1)c1cnns1 (configuration not stated), CC1=C(SCc2ccccc2)C(=O)c2ccccc2C1=O, COC(=O)COc1ccc(Oc2nc(NC(C)(C)C)nc(N(C)C)n2)nn1, CC(C)(C)c1cc(NC(=O)COC(=O)c2ccc(O)cc2O)n(-c2ccccc2)n1, O=C1CC(=O)Nc2cc(S(=O)(=O)Nc3ccc(Cl)c(C(F)(F)F)c3)ccc2N1, O=S(=O)(c1ccccc1)c1nc(-c2ccccc2F)oc1N1CCOCC1, Cc1ccc(S(=O)(=O)c2cc3cc(C(=O)Nc4ccc(C)cc4C)ccc3oc2=O)cc1, CC1CN(S(=O)(=O)c2cccc(C(=O)NCC(c3cccs3)N3CCOCC3)c2)CC(C)O1 (configuration not stated), O=S1OCCN1c1ccccc1 (configuration not stated), Cc1ccc(SCc2nc(-c3ccc(C(=O)NCC(C)c4ccccc4)cc3)oc2C)cc1 (configuration not stated), COc1cccc(N2CC(NS(=O)(=O)c3ccc4ccccc4c3)CC2=O)c1 (configuration not stated), COc1cc(NS(=O)(=O)c2ccc(-c3cc(C)no3)cc2)cc(OC)c1, CC(C)n1cc(C(=O)c2ccccc2O)cc(C#N)c1=O, COc1ccc(C(=O)NCc2ccc(Cl)c(Cl)c2)cc1OC, O=C(N/N=C/c1ccc([N+](=O)[O-])o1)C(O)c1ccccc1 (configuration not stated), CC(C)NC(=O)c1sc(=S)n2c1[nH]c(=O)c1ccc(C(=O)NCCc3ccc(Cl)cc3)cc12, COc1cccc2c1cc1c(=O)n(CC(=O)N3CCC(C)CC3)nc(C)n12, O=c1[nH]c(NCc2ccccc2)nc2c1CCCC2, CC(c1ccccc1)n1cc2c(c1-c1ccccc1Br)c(=O)n(C)c(=O)n2C (configuration not stated), Cc1ccccc1C(=O)N1c2ccccc2OCC1C(C)(C)C (configuration not stated), O=C(Nc1nc(-c2cccs2)cs1)C1=COCCO1, Cc1ccsc1CN(C(=O)c1oc2ccc(Br)cc2c1C)C1CCS(=O)(=O)C1 (configuration not stated)

Potency, inconclusive:
CCc1noc(C)c1C(=O)N1CCCC(N2CCN(c3ccccc3F)CC2)C1 (configuration not stated) 2.51 µM [activator, full curve, poor fit], CC(C)CCNC(=O)c1ccc2c(c1)N(C)C(=O)c1ccccc1S2 31.6 µM [activator, partial curve, poor fit], NS(=O)(=O)c1ccc(CCNC(=O)CSc2nc3ccsc3c(=O)n2CCCCCC(=O)O)cc1 44.7 µM [activator, partial curve, poor fit], Cc1ccc(Cl)cc1Nc1nc(-c2sc(NC(=O)C(C)(C)C)nc2C)cs1 50.1 µM [activator, partial curve, poor fit], COCCSc1nnc(NC(=O)CSc2ccccc2)s1 0.891 µM [activator, full curve, poor fit], OCC1(Cc2ccccc2)CCCN(Cc2cn[nH]c2-c2ccccc2)C1 (configuration not stated) 126 µM [activator, single point], COc1ccc(C(=O)N2CCCC2)cc1 15.8 µM [activator, partial curve, poor fit], COc1ccc(C)cc1NC(=O)CCS(=O)(=O)c1ccc2c(c1)CCN2C(C)=O 50.1 µM [activator, partial curve, poor fit], O=C1NC[C@H](Cc2ccc(O)cc2)N(C[C@@H]2CCCN2C[C@H](Cc2ccc(O)cc2)N2C[C@H](Cc3ccccc3)N(CC3CCCCC3)C(=O)C2=O)C1=O 50.1 µM [activator, single point], CCOC(=O)C1CCCN(S(=O)(=O)c2ccccc2)C1 (configuration not stated) 39.8 µM [activator, single point], O=C(Nc1cccc(NC(=O)c2ccc(-c3ccc(Br)cc3)o2)c1)c1ccccc1 63.1 µM [activator, single point], COc1ccc(Cl)cc1NC(=O)c1ccc2c(SCC(=O)O)c3c(nc2c1)CCCC3 70.8 µM [activator, partial curve, poor fit], CC1CCN(CCOCCOc2ccc(Cl)cc2Br)CC1 14.1 µM [activator, single point], COc1ccccc1N1CCN(C(=O)c2cc3c(=O)oc4ccccc4c3s2)CC1 22.4 µM [activator, partial curve], O=[N+]([O-])c1ccccc1S(=O)(=O)Nc1ccc(-c2ccc3nncn3n2)cc1 126 µM [activator, partial curve, poor fit], CC(C)(C)n1nc2c(c1NC(=O)COc1ccc(F)cc1)CS(=O)(=O)C2 44.7 µM [activator, single point], O=C(CN1c2cccc3cccc(c23)S1(=O)=O)Nc1c(F)c(F)c(F)c(F)c1F 39.8 µM [activator, full curve, poor fit], Cc1ccc(NC(=O)CN2C(=O)NC(C)(C3CC3)C2=O)c(C)c1 (configuration not stated) 44.7 µM [activator, partial curve], Cc1cccc(-c2nc(CN3CCCC(C(=O)NC4CCCCC4)C3)c(C)o2)c1 (configuration not stated) 39.8 µM [activator, single point], CCOc1ccc(N2C(=O)C(CC(=O)Nc3ccccc3)N(Cc3ccccn3)C2=S)cc1 (configuration not stated) 15.8 µM [activator, partial curve], Cc1cccc(CNC(=O)CN2C(=O)CCn3nc(-c4cn(C)c5ccccc45)cc32)c1 2.24 µM [activator, partial curve, poor fit], CCC1CCCCN1C(=O)COC(=O)CSc1ccc(C(N)=O)cc1[N+](=O)[O-] (configuration not stated) 70.8 µM [activator, partial curve, poor fit], CCCC12CN3CC(C)(CN(C1)C3c1ccc(OCc3ccccc3)cc1)C2=O (configuration not stated) 126 µM [activator, single point], O=C(CSc1nc2ccccc2s1)Nn1cnnc1 3.98 µM [activator, partial curve], O=C1C(=O)N(CCO)C(c2ccc(Br)cc2)/C1=C(\O)c1ccccc1 (configuration not stated) 39.8 µM [activator, partial curve, poor fit], COc1cccc(NC(=O)CCc2c(C)nc3nc(CNC(=O)c4cccc(F)c4)nn3c2C)c1 39.8 µM [activator, partial curve, poor fit], CCOC(=O)c1ccc(N2C(=O)CC(N3CC(C)OC(C)C3)C2=O)cc1 (configuration not stated) 14.1 µM [activator, partial curve, poor fit], Cc1cccc2sc(N(CCCN(C)C)C(=O)CCS(=O)(=O)c3ccccc3)nc12 17.8 µM [activator, full curve], Cc1cccc(C(=O)NCc2nnc(SCC(=O)Nc3nncs3)n2C)c1 39.8 µM [activator, partial curve, poor fit], CC(Cc1ccccc1)NC(=O)CSc1nc2nc3c(cc2c(=O)n1-c1ccccc1)COC(C)(C)C3 (configuration not stated) 2.51 µM [activator, full curve, poor fit]

activation, inconclusive:
CC1=C(C(N)=O)C(c2ccc(Cl)cc2Cl)n2ncnc2N1 (configuration not stated) 42.4% [activator], CCC(C(=O)N1CCN(c2ccc(OC)cc2)CC1)n1nc(C)n2c(cc3occc32)c1=O (configuration not stated) -37.7% [activator], COc1cc2c(cc1OC)C(c1ccccc1)N(C(=O)C(C)(C)C)CC2 (configuration not stated) 28.9% [activator], COC(=O)c1ccc(NC(=O)CC2C(=O)N(c3cccc(C)c3)C(=O)N2C2CCCC2)cc1 (configuration not stated) 34.7% [activator], COCCCNC(=O)CCn1c(=O)c2ccccc2n(CC(=O)NCCc2ccc(OC)c(OC)c2)c1=O 12.2% [activator], COc1ccc(-c2nc(CS(=O)CC(=O)NCc3ccc4c(c3)OCO4)c(C)o2)cc1OC (configuration not stated) -65% [activator], Cc1ccc(Sc2ccc(S(=O)(=O)Nc3ccc(C(=O)O)cc3)cc2)cc1C -24.6% [activator], Cc1cccc(N(C(=O)Cn2nnc(-c3ccc(F)cc3)n2)C(C(=O)NC(C)(C)C)c2ccncc2)c1 (configuration not stated) 126% [activator], CCOc1ccc(C(=O)Nc2nncs2)cc1OCC 18.2% [activator]
